Assay results reported in PubChem BioAssay (NCATS).
Where “and” joins values, the source holds several entries; their conditions need not be identical. Identical values can stand only once. Inconclusive results, whose numbers are uncertain, are shown with a selection of clear calls. Where the call is inconclusive, the potency comes from a doubtful curve fit. For some of these results: “Side channel” marks fits to a control or component signal instead of the main read-out. Calls of active or inactive are those of the source. Unless noted, calls come from the whole dose curve; as a rule, active = well fitted curve in the direction sought with a large enough effect; inconclusive = small, poorly fitted or top-dose-only effect, or another doubt; inactive = no such curve, though single readings can be large; an effect the other way counts as inactive or inconclusive.

Sequences of proteins named here, by UniProt entry; tags and fusion partners are left off.
UniProt P78324, whole entry, looked up: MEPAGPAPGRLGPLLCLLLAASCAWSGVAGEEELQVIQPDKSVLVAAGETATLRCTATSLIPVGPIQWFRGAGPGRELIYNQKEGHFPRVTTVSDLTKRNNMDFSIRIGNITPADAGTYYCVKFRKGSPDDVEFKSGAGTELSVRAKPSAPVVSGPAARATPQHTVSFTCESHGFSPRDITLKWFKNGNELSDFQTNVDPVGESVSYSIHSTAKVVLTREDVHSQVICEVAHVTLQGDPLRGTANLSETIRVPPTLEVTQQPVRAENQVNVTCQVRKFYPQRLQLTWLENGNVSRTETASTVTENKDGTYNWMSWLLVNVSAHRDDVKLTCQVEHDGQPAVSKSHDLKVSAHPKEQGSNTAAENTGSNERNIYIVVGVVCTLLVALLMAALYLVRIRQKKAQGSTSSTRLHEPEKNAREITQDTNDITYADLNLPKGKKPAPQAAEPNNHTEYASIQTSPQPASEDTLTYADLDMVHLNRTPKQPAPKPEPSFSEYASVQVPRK
UniProt Q08722, whole entry, looked up: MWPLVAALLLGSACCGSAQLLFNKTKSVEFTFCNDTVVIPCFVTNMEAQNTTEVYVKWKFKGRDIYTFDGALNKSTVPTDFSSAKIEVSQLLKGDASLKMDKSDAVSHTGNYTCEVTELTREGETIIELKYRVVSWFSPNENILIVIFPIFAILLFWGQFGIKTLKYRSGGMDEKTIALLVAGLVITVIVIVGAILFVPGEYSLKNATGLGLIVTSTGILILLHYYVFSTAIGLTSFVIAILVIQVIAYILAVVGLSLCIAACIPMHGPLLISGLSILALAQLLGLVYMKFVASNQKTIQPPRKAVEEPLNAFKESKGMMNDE

Columns and labels:
[1] = Identifying Small Molecule Inhibitors of Pancreatic Cancer Stem Cells (Panc1, Adherent) (AID 1259362); settings: Potency: viability unless noted; viability, % of control: at 46.1 µM (top of the series) unless noted; note: potency is the fitted concentration of half-maximal effect;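 for viability, % of control: compound exposure lasted 48 h before the viability read; plate controls were DMSO-treated cells for no effect and cell-free media wells for full effect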
In short: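 Cytotoxicity read by CellTiter-Glo luminescence after 48 h compound exposure at 37C; percent activity scaled between DMSO-treated cells and cell-free wells. Spheroid formats used cells pre-formed 14 days in stem cell media on hydrogel.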

[2] = NS1 protein of Zika virus - qHTS assay to identify small molecule inhibitors in human HEK 293 cells (AID 1347053); note: nearly all actives have a fitted effect of over 55% in size; note: potency is the fitted concentration of half-maximal effect
In short: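 In this cell-based screen, HEK 293 cultures received compound for one hour before Zika MR766 at MOI = 0.5. NS1 was quantified 24 hours later by TR-FRET, normalized to virus-free wells and infected wells.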

[3] = P-glycoprotein substrates identified in KB-8-5-11 adenocarcinoma cell line, qHTS therapeutic library screen (AID 1346987); note: nearly all actives have a fitted effect of over 65% in size; note: potency is the fitted concentration of half-maximal effect
In short: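 Compounds are pinned in dose-response onto KB-8-5-11 cells (500 cells/well, colchicine-free medium) and left 72 h at 37 degree C. CellTiter-Glo luminescence then yields AC50 values.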

[4] = biological target: Tyrosine-protein phosphatase non-receptor type substrate 1 (Homo sapiens) + Leukocyte surface antigen CD47 (Homo sapiens) (UniProt P78324+Q08722); assay: CD47-SIRPalpha protein protein interaction - HTRF assay qHTS validation (AID 1347058; active = well fitted curve in the direction sought with a large enough effect in the signal ratio, not every such curve was filed as active; inconclusive = small, poorly fitted or top-dose-only effect, or effect the other way, or a change in a side signal; inactive = no such curve, though single readings can be large or run the other way; the % refers to the signal ratio)
In short: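 Soluble extracellular domains (6His-CD47, Avi-tag-biotinylated SIRPalpha) in PBS pH 7.4 with 0.05% IGEPAL CA-630. Compounds were preincubated 30 min at RT with CD47 and anti-His-Eu, then SIRPalpha and SAV-XL665 were added. TR-FRET 665/615 ratio.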

[5] = qHTS of pediatric cancer cell lines to identify multiple opportunities for drug repurposing: Primary screen for TC32 cells (AID 1347089); note: nearly all actives have a fitted effect of over 60% in size; note: potency is the fitted concentration of half-maximal effect
In short: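 Measured quantity: luminescence from CellTiter-Glo, reflecting metabolically active TC32 cells following 48 h of compound. Curves came straight from multi-point titrations, with 8 or 11 points in primary and 11 in confirmatory screening.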

[6] = P-glycoprotein substrates identified in KB-3-1 adenocarcinoma cell line, qHTS therapeutic library screen (AID 1346986); note: nearly all actives have a fitted effect of over 60% in size;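 note: potency is the fitted concentration of half-maximal effect; potency is for cytotoxicity meaning loss of cell viability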
In short: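 Viability read by CellTiter-Glo after 72 h compound exposure in dose-response of KB-3-1 and KB-8-5-11 (P-gp-high) cells. Hits needed AC50 < 10 uM, >50% maximum response and curve class -1.1 to -2.4. Cherry-picks retested ± tariquidar, including pcDNA/MDR-19 HEK-293 pair.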

Compound: COc1ccc(OC)c(-c2nnc3ccc(-c4ccc(OC)c(O[C@@H]5CCOC5)c4)nn23)c1
- Potency [1]: inconclusive: 1.48 µM [cytotoxic, partial curve, poor fit]
- Potency [2]: active: 9.35 µM

Compound: COc1ccc(CCN2CCN(CCCc3ccccc3)CC2)cc1OC
- Potency [1]: inactive
- Potency [2]: inactive

Compound: CCCCCN(CCC12CC3CC(CC(C3)C1)C2)C(=O)NCCCc1ccncc1
- Potency [1]: inconclusive: 29.6 µM [cytotoxic, single point]
- Potency [2]: inactive

Compound: CCN(CC)CCOc1ccc(Nc2ncc3cc(-c4c(Cl)cccc4Cl)c(=O)n(C)c3n2)cc1
- Potency [1]: active: 0.296 µM
- Potency [3]: active: 0.166 µM
- Potency [2]: active: 166 nM and inconclusive: 631 nM [inhibitor, full curve, poor fit]
- Potency [4]: inconclusive: 23.3 µM [side channel, falling, single point]

Compound: Nc1ccc(C(=O)c2cc3c(ccc4ccccc43)[nH]2)cc1
- Potency [1]: active: 2.96 µM
- Potency [2]: active: 18.7 µM
- Potency [5]: active: 7.39 µM

Compound: CCOC(=O)[C@@H](N)CCC(=O)N[C@@H](CSCc1ccccc1)C(=O)N[C@@H](C(=O)OCC)c1ccccc1
- Potency [1]: inactive
- Potency [2]: inconclusive: 37.2 µM [inhibitor, single point]

Compound: COc1cc2c(cc1OC)[C@@H]1C(=O)c3ccc4c(c3O[C@@H]1CO2)C=CC(C)(C)O4
- Potency [1]: inconclusive: 18.7 µM [cytotoxic, partial curve]
- Potency [3]: active: 5.17 µM
- Potency [2]: inconclusive: 37.2 µM [inhibitor, single point]
- Potency [5]: inconclusive: 0.739 µM [cytotoxic, full curve]

Compound: CNc1nccc(-c2cccnc2Oc2cc(C(=O)Nc3cccc(C(F)(F)F)c3)ccc2C)n1
- Potency [1]: inconclusive: 26.4 µM [cytotoxic, single point]
- Potency [2]: inconclusive: 33.2 µM [inhibitor, single point]

Compound: O=C(O)[C@H](Cc1c[nH]c2ccccc12)N1C(=O)c2ccccc2C1=O
- Potency [1]: inactive
- Potency [2]: inactive

Compound: Cc1cccc(Nc2nc(N[C@@H]3CCCC[C@H]3N)ncc2C(N)=O)c1
- Potency [1]: active: 26.4 µM
- Potency [2]: active: 23.5 µM

Compound: CC(C)(N)C(=O)N[C@H](COCc1ccccc1)C(=O)N1CCC2(CC1)CN(S(C)(=O)=O)c1ccccc12
- Potency [1]: inconclusive: 0.0019 µM [rising, full curve]
- Potency [2]: inconclusive: 29.6 µM [inhibitor, single point]

Compound: O=C(O)c1ccc(O)c2ncc(N3CCOCC3)cc12
- Potency [1]: inactive
- Potency [2]: inconclusive: 37.2 µM [inhibitor, single point]
- Potency [5]: inconclusive: 20.8 µM [cytotoxic, partial curve, poor fit]

Compound: O=C(O)c1ccc2c(c1)nc(Nc1cccc(Cl)c1)c1ccncc12
- Potency [1]: inconclusive: 23.5 µM [cytotoxic, partial curve]
- Potency [2]: inconclusive: 29.6 µM [inhibitor, single point]

Compound: COc1c(C)cnc(Cn2cnc3c(Cl)nc(N)nc32)c1C
- Potency [1]: active: 0.0332 µM
- Potency [3]: inconclusive: 0.0935 µM [inhibitor, full curve]
- Potency [5]: active: 1.17 µM

Compound: C1=CCOCc2cc(ccc2OCCN2CCCC2)Nc2nccc(n2)-c2cccc(c2)OCC1
- Potency [1]: active: 1.87 µM
- Potency [2]: active: 4.18 µM

Compound: COc1c(Cl)cc2c([nH]c3cnccc32)c1NC(=O)c1cccnc1C
- Potency [1]: inconclusive: 0.0083 µM [rising, full curve, poor fit]
- Potency [5]: inconclusive: 23.4 µM [cytotoxic, partial curve, poor fit]

Compound: O=C(NC1CCNCC1)c1[nH]ncc1NC(=O)c1c(Cl)cccc1Cl
- Potency [1]: inconclusive: 93.5 nM [cytotoxic, full curve] and inconclusive: 209 nM [cytotoxic, full curve]
- Potency [2]: active: 3.72 µM

Compound: Cc1n[nH]c(C)c1Cc1sc2c(c1C(=O)N1C[C@H](O)CO1)c(=O)n(C)c(=O)n2CC(C)C
- viability, % of control [1]: inconclusive: 97.4%
- Potency [5]: inconclusive: 2.94 µM [cytotoxic, partial curve]

Compound: CCN(CCO)CCCOc1ccc2c(Nc3cc(CC(=O)Nc4cccc(F)c4)[nH]n3)ncnc2c1
- Potency [6]: inconclusive: 0.146 µM [inhibitor, full curve]
- Potency [5]: active: 0.33 µM

Compound: CCN(CC)CCOc1ccc(Cc2ccccc2)cc1
- Potency [3]: inconclusive: 29.1 µM [inhibitor, single point]

Compound: Nc1c2c(nc3ccccc13)CCCC2
- Potency [3]: inconclusive: 18.4 µM [inhibitor, partial curve, poor fit]

Compound: CCNC(=O)Nc1ccc(Oc2ncnc(N)c2C=NOC)cc1Cl
- Potency [3]: inconclusive: 7.43 µM [inhibitor, partial curve]

Compound: COC(=O)N[C@H](C(=O)N[C@@H](Cc1ccccc1)[C@@H](O)CN(Cc1ccc(-c2ccccn2)cc1)NC(=O)[C@@H](NC(=O)OC)C(C)(C)C)C(C)(C)C
- Potency [3]: inactive

Compound: CCCOc1ccc(C(=O)OCCN(CC)CC)cc1N
- Potency [3]: inactive

Compound: CCC(c1ccc(O)cc1)C(CC)c1ccc(O)cc1 (stereo not given)
- Potency [3]: inactive

Compound: CC(C)(Oc1ccc(C2CC2(Cl)Cl)cc1)C(=O)O (stereo not given)
- Potency [6]: inactive
- Potency [5]: inconclusive: 42.6 µM [cytotoxic, single point]

Compound: CCC(=C(c1ccc(O)cc1)c1ccc(OCCNC)cc1)c1ccccc1
- Potency [3]: inconclusive: 37.2 µM [inhibitor, single point]

Compound: CNC(=O)[C@H](CC1=CN=C2C=CCC=C12)NC(=O)[C@@H](CC(=O)NO)CC(C)C
- Potency [3]: inactive

Compound: Cc1ccc2c(=O)c3cccc(CC(=O)O)c3oc2c1C
- Potency [3]: inactive

Compound: CN1CCC[C@H]1CCO[C@](C)(c1ccccc1)c1ccc(Cl)cc1
- Potency [3]: inconclusive: 23.5 µM [inhibitor, single point]

Compound: CC1=CC(=O)c2ccccc2C1=O
- Potency [6]: inconclusive: 56.2 µM [inhibitor, single point]
- Potency [3]: inconclusive: 29.1 µM [inhibitor, single point] and inconclusive: 63.1 µM [inhibitor, single point]
- Potency [2]: inconclusive: 25.1 µM [inhibitor, single point]

Compound: COc1cccc(N(C)C(=S)Oc2ccc3c(c2)CCCC3)n1
- Potency [3]: inconclusive: 29.1 µM [inhibitor, single point] and inactive

Compound: C[C@]12CC[C@@H]3c4ccc(O)cc4CC[C@H]3[C@H]1[C@@H](O)[C@@H](O)[C@H]2O
- Potency [3]: inactive

Compound: CC1(C)O[C@H]2CC(=O)OC[C@]23[C@H]2CC[C@@]4(C)[C@H](c5ccoc5)OC(=O)[C@H]5O[C@]54[C@]2(C)C(=O)C[C@@H]13
- Potency [6]: inactive

Compound: c1ccc(CNc2nc(N3CCOc4ccccc43)nc3c2CCCC3)cc1
- Potency [3]: inconclusive: 20.6 µM [inhibitor, single point]

Compound: CN(C)CCCC1(c2ccc(F)cc2)OCc2cc(C#N)ccc21 (stereo not given)
- Potency [3]: inconclusive: 16.6 µM [inhibitor, partial curve, poor fit]

Compound: COc1cc2c(cc1-c1c(C)noc1C)ncc1[nH]c(=O)n([C@H](C)c3ccccn3)c12
- Potency [3]: inconclusive: 10.5 µM [inhibitor, partial curve] and inconclusive: 6.51 µM [inhibitor, partial curve]

Compound: N=C(N)c1ccc2cc(OC(=O)c3ccc(N=C(N)N)cc3)ccc2c1
- Potency [3]: inconclusive: 20.9 µM [inhibitor, single point]

Compound: CCOC(=O)c1ccc(C#Cc2ccc3c(c2)C(C)(C)CCS3)nc1
- Potency [3]: inactive

Compound: CCn1c(=O)c2c(nc(C=Cc3ccc(OC)c(OC)c3)n2C)n(CC)c1=O
- Potency [3]: inactive

Compound: CC(=O)NC(CS)C(=O)O (stereo not given)
- Potency [3]: inactive

Compound: N#CC(c1ccc(Cl)cc1)c1c(Cl)cc(-n2ncc(=O)[nH]c2=O)cc1Cl (stereo not given)
- Potency [3]: inconclusive: 18.4 µM [inhibitor, single point]

Compound: CC(C)(C)C(=O)Oc1ccc(S(=O)(=O)Nc2ccccc2C(=O)NCC(=O)O)cc1
- Potency [6]: inactive

Compound: C[C@]12CCC(=O)C=C1[C@@H]1CC1[C@H]1[C@H]3[C@@H]4C[C@H]4[C@@]4(CCC(=O)O4)[C@@]3(C)CC[C@H]12 (stereo not given in full)
- Potency [3]: inconclusive: 26.4 µM [inhibitor, single point]

Compound: CCCCOCCOc1nc(-c2ccc(C(=O)O)c(F)c2)sc1C
- viability, % of control [1]: inconclusive: 114%
- Potency [5]: inactive

Compound: COc1nc(N)nc2c1ncn2[C@@H]1O[C@H](CO)[C@@H](O)[C@@H]1O
- Potency [3]: inactive

Compound: CC[C@H](C)C(=O)O[C@H]1C[C@@H](C)C=C2C=C[C@H](C)[C@H](CC[C@@H]3C[C@@H](O)CC(=O)O3)[C@H]21
- Potency [3]: inconclusive: 20.6 µM [inhibitor, single point] and inconclusive: 8.93 µM [inhibitor, single point]

Compound: COc1cc2nc(N3CCN(C(=O)C4COc5ccccc5O4)CC3)nc(N)c2cc1OC (stereo not given)
- Potency [3]: inconclusive: 20.9 µM [inhibitor, partial curve]

Compound: CCCc1nc(C(C)(C)O)c(C(=O)O)n1Cc1ccc(-c2ccccc2-c2nn[nH]n2)cc1
- Potency [3]: inactive

Compound: COc1cccc2nc(-c3cccs3)nc(NN3C(=O)C=C(C)C3=O)c12
- Potency [1]: active: 16.6 µM
- Potency [5]: active: 1.86 µM

Compound: COc1ccc(-c2cc3nccn3c(Nc3ncccc3C(N)=O)n2)cc1OC
- Potency [3]: inconclusive: 3.72 µM [inhibitor, full curve] and inconclusive: 9.2 µM [inhibitor, partial curve]

Compound: N#CC1(c2cccc(C(=O)Nc3cc(Oc4ccc5nc(NC(=O)C6CC6)sc5n4)ccc3F)c2Cl)CC1
- Potency [6]: inconclusive: 3.66 µM [inhibitor, full curve]
- Potency [3]: inconclusive: 13.2 µM [inhibitor, partial curve] and inconclusive: 9.2 µM [inhibitor, partial curve]
- Potency [2]: active: 2.35 µM
